Data set [1] has as its system human lymphocytes CRL-8155. As to the kind of experiment: Cytotoxicity against CRL-8155 cells. The note with it: Selectivity index: EC50 (cell line)/EC50 (T. b. brucei).
In another data set the test system is human hepatocytes HepG2. Nature of the data set: Cytotoxicity against HepG2 cells. The note with it: Selectivity index: EC50 (cell line)/EC50 (T. b. brucei).

The structures appear in SMILES notation.

As to `O=C(Nc1ccc2sc(-c3ccc(F)c(F)c3)nc2c1)N1CCC(F)(F)C1` [Compound 9, 2-(3,4-Difluorophenyl)-5-(3,3-difluoro-N-pyrrolidylamido)benzothiazole], the “CRL-8155 SI” value in data set [1] is on record as more than 54.

As to `O=C(Nc1ccc2sc(-c3ccccc3)nc2c1)c1cccs1` [Compound 18, 2-Phenyl-5-(2-thienylamido)benzothiazole], in data set [1], the “CRL-8155 SI” value is listed as more than 57. On the same count and under the same terms, the entry for `O=C(Nc1ccc2sc(-c3cccc(F)c3)nc2c1)c1ccccc1` [Compound 28, 5-Benzamido-2-(3-fluorophenyl)benzothiazole] is “above 500”; for `O=C(Nc1ccc2sc(-c3ccccc3F)nc2c1)N1CCCC1` [Compound 32, 2-(2-Fluorophenyl)-5-(N-pyrrolidylamido)benzothiazole] it is more than 51; for `O=C(Nc1ccc2sc(-c3ccccc3F)nc2c1)N1CCCCC1` [Compound 33, 2-(2-Fluorophenyl)-5-(N-piperidylamido)benzothiazole] it is more than 53.

Consider `N=C(N)c1ccc(OCCCCCOc2ccc(C(=N)N)cc2)cc1` [penth, Pentamidine, reference compound], for which the “HepG2 SI” value in the data set on human hepatocytes HepG2 was more than 93000. Further, the “CRL-8155 SI” value in data set [1] is recorded as more than 43200.
